Results are given in words; binding and its absence hold for the method and conditions named. Binding seen in cells or lysates may run through a third protein. These calls come from enrichment with a bait or labelling near it, and not all partners need be listed.

Amino acid sequences for entries named in this document (tags omitted). A change or cut given only in a name is not applied to a line headed by its entry.
UniProt Q8K4Z2: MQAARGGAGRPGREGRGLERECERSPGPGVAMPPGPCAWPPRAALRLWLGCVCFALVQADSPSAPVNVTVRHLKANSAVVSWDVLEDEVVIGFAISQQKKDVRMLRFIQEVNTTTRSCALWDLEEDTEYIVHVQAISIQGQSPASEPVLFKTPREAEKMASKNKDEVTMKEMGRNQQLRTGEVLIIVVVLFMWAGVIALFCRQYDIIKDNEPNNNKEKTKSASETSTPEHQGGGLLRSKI
UniProt P49817: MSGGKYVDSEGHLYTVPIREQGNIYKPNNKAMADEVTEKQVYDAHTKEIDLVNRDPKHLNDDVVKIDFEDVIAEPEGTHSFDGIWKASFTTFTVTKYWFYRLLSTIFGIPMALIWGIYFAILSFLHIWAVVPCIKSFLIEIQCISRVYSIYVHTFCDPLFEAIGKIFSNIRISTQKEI

The values that follow come from PMC11320359.

This assay concerns the target GST-irisin recombinant protein (UniProt Q8K4Z2). The assay can be described thus: affinity purification with mass spectrometry; GST-irisin held on GST magnetic beads; target protein added, 30 min at room temperature; binding buffer 140 mM NaCl, 2.7 mM KCl, 10 mM Na2HPO4, 1.8 mM KH2PO4, pH 7.4; eluted with 10 mM reduced glutathione; band cut out and analysed by mass spectrometry; only the target purified.

With “Caveolin 1 (prey of the GST-irisin pull-down) (from UniProt P49817 1-178)”, the binding entry is given as “binds”.
